Measured values as given in patent US20100022401A1, “Avidin-like proteins from symbiotic bacteria” (LICENTIA OY, priority 2004, published 2010).

Tested on: human serum antibodies elicited toward avidin and streptavidin
Assay: ELISA immunological cross-reactivity with sera of cancer patients exposed to avidin and streptavidin
Type: binding
Conditions: diluted 1:100

## Streptavidin: bacterial analog for avidin from S. avidinii (SEQ ID NO:7) [reference compound]
  Recognition by patient sera (ELISA, absorbance at 405 nm): even more clearly
